Experimental data reported in patent US20100285005A1 (Eli Lilly, published 2010).

B1: Antibody III (antibody, human IgG4 S228P, kappa, F234A L235A, V domains shown)
VH: EVQLVESGGGLVQPGGSLRLSCAASGFTSTDYYFSWVRQAPGKGLEWVGFIRYKSKGYTTEYSGSVKGRFTISRDDSKNSLYLQMNSLKTEDTAVYYCAREPITTDPRDYWGQGTLVTVSS
VL: DIVMTQSPDSLAVSLGERATINCKSSQSLFNSRTRKKYLAWYQQKPGQPPKLLIYWASKRKSGVPDRFSGSGSGTDFTLTISSLQAEDVAVYYCKQSRFLRAFGQGTKLEIKR
notes: Human engineered anti-CXCR4 antibody; also called the antibody III
B2: Antibody I (antibody, human IgG4 S228P, kappa, F234A L235A, V domains shown)
VH: B1 VH with Y53T
VL: B1 VL
B3: Antibody II (antibody, human IgG4 S228P, kappa, F234A L235A, V domains shown)
VH: B1 VH with Y53S
VL: B1 VL
B4: Antibody IV (antibody, human IgG4 S228P, kappa, F234A L235A, V domains shown)
VH: B1 VH with Y53N, S55R
VL: B1 VL
B5: Antibody V (antibody, human IgG4 S228P, kappa, F234A L235A, V domains shown)
VH: B1 VH with Y53H
VL: B1 VL

Biological target: human CXCR4 receptor with a C-terminal linear C9 peptide tag (human)
Test: SPR (Biacore 2000), C9-tagged CXCR4 captured by 1D4 antibody, 4 °C

Question: For B1, which binding is on record?
Answer: Its binding is “binds”.

Question: How did the binding turn out when B2 was run?
Answer: The binding was “binds”.

Question: For B3, which binding is on record?
Answer: The binding was “binds”.

Question: B4 was tested. Which binding did it give?
Answer: The binding was “binds”.

Question: How did the binding turn out when B5 was run?
Answer: Its binding is “binds”.

Changes are numbered by the printed parent chain. Results are given in words; binding and its absence hold for the method and conditions named. A result given as binding can be weak or reduced; the word gives no strength.
